This note sets out measurements from patent publication US20160368951A1.

Protein sequences, listed by entry. Tags and fused reporters are not part of them. Residues count along the entry.
UniProt P01556, residues 22-124: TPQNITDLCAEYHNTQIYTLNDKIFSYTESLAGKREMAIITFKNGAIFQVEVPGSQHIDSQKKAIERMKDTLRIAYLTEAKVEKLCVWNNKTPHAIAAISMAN

No constants are given. Whether binding was seen depends on the method and setting. Some binding calls cover weakened binding; strength is not graded here.

The target in the assay is CTB expressed in yeast (UniProt P01556). In words: expression in a yeast system, molecular weight of the pentamer.

Regarding “CTB expressed in yeast (from UniProt P01556 22-124)”, the binding result is “binds”.
